In PMC4797267, “The CSB chromatin remodeler and CTCF architectural protein cooperate in response to oxidative stress”:
These are yes or no findings as the source states them, for the method shown. For some of these results: Binding seen in cells or lysates may run through a third protein. Some entries that bind do so weakly or less than the wild type. Tags and fused reporters may be left off the sequences shown.

By UniProt entry, the sequences of proteins in these tests, tags left out. Where a name states a change or a piece, a line headed by the entry shows the natural chain unless it says otherwise.
UniProt Q03468: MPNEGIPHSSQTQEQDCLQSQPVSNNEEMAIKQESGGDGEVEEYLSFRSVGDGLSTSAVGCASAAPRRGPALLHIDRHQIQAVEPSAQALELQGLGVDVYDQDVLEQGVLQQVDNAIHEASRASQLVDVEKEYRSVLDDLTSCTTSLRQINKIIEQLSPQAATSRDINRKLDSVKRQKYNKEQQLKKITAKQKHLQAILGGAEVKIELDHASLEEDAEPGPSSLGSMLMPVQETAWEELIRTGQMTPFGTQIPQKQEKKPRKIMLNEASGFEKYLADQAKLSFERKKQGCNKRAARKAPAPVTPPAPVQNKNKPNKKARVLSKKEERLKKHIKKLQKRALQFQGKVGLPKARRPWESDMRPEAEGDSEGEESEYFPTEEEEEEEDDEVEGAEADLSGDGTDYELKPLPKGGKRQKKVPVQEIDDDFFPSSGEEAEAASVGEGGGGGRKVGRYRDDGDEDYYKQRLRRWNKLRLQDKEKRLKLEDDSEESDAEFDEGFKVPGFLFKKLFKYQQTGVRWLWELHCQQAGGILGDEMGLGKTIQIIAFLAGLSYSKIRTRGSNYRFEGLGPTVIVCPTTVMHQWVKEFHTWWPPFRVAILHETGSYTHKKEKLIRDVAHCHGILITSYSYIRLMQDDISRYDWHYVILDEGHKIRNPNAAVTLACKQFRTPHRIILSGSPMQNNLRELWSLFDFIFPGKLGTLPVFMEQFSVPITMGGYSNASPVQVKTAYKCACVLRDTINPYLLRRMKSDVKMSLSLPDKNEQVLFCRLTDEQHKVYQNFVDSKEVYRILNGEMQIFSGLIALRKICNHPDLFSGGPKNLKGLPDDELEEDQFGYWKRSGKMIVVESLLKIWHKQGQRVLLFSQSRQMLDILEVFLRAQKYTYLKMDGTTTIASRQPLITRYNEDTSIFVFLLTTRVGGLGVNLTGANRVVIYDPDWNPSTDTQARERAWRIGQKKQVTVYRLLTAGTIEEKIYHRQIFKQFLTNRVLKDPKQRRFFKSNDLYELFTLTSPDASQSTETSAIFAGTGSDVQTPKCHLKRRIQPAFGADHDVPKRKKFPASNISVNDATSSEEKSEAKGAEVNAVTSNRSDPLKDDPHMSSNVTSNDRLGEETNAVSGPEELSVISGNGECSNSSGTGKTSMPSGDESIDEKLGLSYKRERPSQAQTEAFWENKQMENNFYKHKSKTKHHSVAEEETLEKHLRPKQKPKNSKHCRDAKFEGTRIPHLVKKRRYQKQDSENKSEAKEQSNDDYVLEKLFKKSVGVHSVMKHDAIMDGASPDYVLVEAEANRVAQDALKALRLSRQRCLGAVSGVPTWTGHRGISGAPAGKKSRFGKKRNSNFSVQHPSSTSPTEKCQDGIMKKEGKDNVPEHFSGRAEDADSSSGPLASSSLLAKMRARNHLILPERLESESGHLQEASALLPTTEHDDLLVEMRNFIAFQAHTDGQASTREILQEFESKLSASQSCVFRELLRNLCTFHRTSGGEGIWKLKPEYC

Tests used:
[1] = target: T1, MBP-CTCF (zinc fingers 1-11, aa 269-579) (UniProt P49711); test: pull-down; MBP-CTCF (or MBP) immobilised on amylose beads, incubated with purified N-terminally Flag-tagged CSB, CSB-N or CSB-C at 4°C for 1 hour in PBS with 0.5% Triton X-100 and 10 μM ZnSO4; Coomassie-stained gel; both purified
T1 sequence: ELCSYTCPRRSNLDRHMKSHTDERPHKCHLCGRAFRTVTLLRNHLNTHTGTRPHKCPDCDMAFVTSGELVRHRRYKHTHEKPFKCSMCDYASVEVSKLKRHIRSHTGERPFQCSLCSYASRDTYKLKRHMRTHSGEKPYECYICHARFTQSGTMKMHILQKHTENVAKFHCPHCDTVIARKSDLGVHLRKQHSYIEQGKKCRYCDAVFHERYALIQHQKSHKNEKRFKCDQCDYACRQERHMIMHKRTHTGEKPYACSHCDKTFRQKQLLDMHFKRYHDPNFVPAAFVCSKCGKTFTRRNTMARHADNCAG

Flag-tagged CTCF = target: T2, Flag-tagged CTCF (UniProt P49711); test: co-IP; anti-Flag immunoprecipitation from lysates of 293T cells transiently transfected with Flag-tagged CTCF, with or without a 1-h treatment with 100 μM menadione; western blot for CSB
T2 sequence: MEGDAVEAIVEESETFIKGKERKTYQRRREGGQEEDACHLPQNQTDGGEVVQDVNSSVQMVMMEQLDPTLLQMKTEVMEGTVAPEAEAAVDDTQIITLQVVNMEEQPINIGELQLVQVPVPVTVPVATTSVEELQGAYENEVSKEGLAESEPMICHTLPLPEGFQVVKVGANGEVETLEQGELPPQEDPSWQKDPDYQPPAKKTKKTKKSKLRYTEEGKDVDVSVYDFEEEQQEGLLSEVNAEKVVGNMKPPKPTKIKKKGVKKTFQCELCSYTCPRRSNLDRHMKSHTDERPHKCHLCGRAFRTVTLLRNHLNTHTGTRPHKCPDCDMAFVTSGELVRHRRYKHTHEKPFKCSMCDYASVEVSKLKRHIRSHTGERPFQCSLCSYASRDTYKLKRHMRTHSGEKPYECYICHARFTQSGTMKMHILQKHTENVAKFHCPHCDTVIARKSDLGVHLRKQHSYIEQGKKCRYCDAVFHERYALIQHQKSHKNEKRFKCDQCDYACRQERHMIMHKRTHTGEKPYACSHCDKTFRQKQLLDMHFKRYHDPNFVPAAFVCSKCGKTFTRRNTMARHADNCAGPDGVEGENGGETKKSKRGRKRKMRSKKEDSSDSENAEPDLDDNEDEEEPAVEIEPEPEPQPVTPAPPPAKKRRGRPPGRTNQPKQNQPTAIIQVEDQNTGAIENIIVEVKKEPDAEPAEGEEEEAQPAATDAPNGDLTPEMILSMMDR

CSB-C (C-terminal 483 amino acids of CSB) (from UniProt Q03468 1011-1493) (domain or fragment)
binding [1]: binds

CSB-N (first 507 amino acids of CSB) (from UniProt Q03468 1-507) (domain or fragment)
binding [1]: no binding

Cockayne syndrome group B protein (CSB) (from UniProt Q03468 1-1493)
binding (Flag-tagged CTCF): binds

Flag-tagged CSB (from UniProt Q03468 1-1493)
binding [1]: binds
